Results as given in US20180163179A1, “METHOD FOR IMPROVEMENT OF DRUG METABOLISM OF HUMAN STEM CELL-DERIVED HEPATOCYTES” (KOREA ADVANCED INSTITUTE OF SCIENCE AND TECHNOLOGY, priority 2015, published 2018).
At least one structure is not confirmed: it was looked up by name or label, or the drawing left a doubt.

System: human embryonic stem cell-derived hepatocytes (hES-Hep)
Test: TUNEL assay of apoptosis after the treatment of retinoic acid
Assay type: cell-based
Conditions: 1 uM all-trans retinoic acid and 0.2 M EtOH, culture 24 hours, FIG. 19

With CC1=C(/C=C/C(C)=C/C=C/C(C)=C/C(=O)O)C(C)(C)CCC1 [retinoic acid] as the compound, how does the “apoptosis induced by alcohol (TUNEL)” value read?
The value was “significantly reduced”.
